Assay results: US20120214193A1, “METHOD FOR MEASUREMENT OF FLUORESCENCE INTENSITY OF VOLTAGE-SENSITIVE FLUORESCENT DYE” (Keio University, priority 2009, published 2012)

Tests used:
[1] = Screening for enhancers of fluorescent intensity and potential-dependent percent change in fluorescent intensity (sensitivity) using solid-phase fluorochrome
[2] = Fluorescent intensity of potential-sensitive fluorochromes forming a solid phase on a substrate surface, potassium chloride added, no membrane carrier; conditions: for changes in fluorescent intensity versus concentration of added potassium chloride (FIG. 2): 10 μM and 100 μM fluorochrome on plastic dish, KCl 0-20 mM; for fluorescent intensity versus concentration of added potassium chloride (FIG. 1): 50 μM fluorochrome on plastic or glass dish, KCl 0, 5, 10, 15, 20 mM
[3] = 100 μM Di8-ANEPPS, vitamin E 18.7 μM to 500 μM, KCl 0-50 mM

Compound	changes in fluorescent intensity versus concentration of added potassium chloride (FIG. 2) [2]	fluorescent intensity versus concentration of added potassium chloride (FIG. 1) [2]	further results
vitamin E			increase of fluorescent intensity (FIG. 4) [1, 3]: about 1.5 times; increase of percent change in fluorescent intensity (FIG. 4) [1, 3]: about 3 times
CCCCN(CCCC)c1ccc(/C=C/C=C/C=C/c2cc[n+](CCCCS(=O)(=O)[O-])cc2)cc1 [RH237]	changes in the fluorescent intensity occurred in proportion to the concentration of the added ionizing compound		
CC(C)CCC[C@@H](C)[C@H]1CC[C@H]2[C@@H]3CC=C4C[C@@H](O)CC[C@]4(C)[C@H]3CC[C@]12C [cholesterol]			fluorescent intensity (FIG. 4) ([1]; 100 μM Di8-ANEPPS, cholesterol 18.8 μM or 238 μM, KCl 0-50 mM): enhanced the fluorescent intensity in a dose-dependent manner; fluorescent intensity (FIG. 3(b)) ([1]; Di8-ANEPPS, additive 75 μM (figure legend 18.75 μM), KCl 0-20 mM): have the action for enhancing the fluorescent intensity
CCCCN(CCCC)c1ccc2cc(/C=C/c3cc[n+](CCCS(=O)(=O)[O-])cc3)ccc2c1 [Di4-ANEPPS]		the fluorescent intensity increased in proportion to the concentration of the added ionizing compound	
CCCCCCCCN(CCCCCCCC)c1ccc2cc(/C=C/c3cc[n+](CCCS(=O)(=O)[O-])cc3)ccc2c1 [Di8-ANEPPS]	changes in the fluorescent intensity occurred in proportion to the concentration of the added ionizing compound	the fluorescent intensity increased in proportion to the concentration of the added ionizing compound	
